PMC4906405
These are yes or no findings as the source states them, for the method shown.

Amino acid sequences for entries named in this document (tags omitted). A change or cut given only in a name is not applied to a line headed by its entry. Chains listed by the source or under a name are the forms on record and can include a tag or linker. Residues count along the entry.
UniProt G1T469: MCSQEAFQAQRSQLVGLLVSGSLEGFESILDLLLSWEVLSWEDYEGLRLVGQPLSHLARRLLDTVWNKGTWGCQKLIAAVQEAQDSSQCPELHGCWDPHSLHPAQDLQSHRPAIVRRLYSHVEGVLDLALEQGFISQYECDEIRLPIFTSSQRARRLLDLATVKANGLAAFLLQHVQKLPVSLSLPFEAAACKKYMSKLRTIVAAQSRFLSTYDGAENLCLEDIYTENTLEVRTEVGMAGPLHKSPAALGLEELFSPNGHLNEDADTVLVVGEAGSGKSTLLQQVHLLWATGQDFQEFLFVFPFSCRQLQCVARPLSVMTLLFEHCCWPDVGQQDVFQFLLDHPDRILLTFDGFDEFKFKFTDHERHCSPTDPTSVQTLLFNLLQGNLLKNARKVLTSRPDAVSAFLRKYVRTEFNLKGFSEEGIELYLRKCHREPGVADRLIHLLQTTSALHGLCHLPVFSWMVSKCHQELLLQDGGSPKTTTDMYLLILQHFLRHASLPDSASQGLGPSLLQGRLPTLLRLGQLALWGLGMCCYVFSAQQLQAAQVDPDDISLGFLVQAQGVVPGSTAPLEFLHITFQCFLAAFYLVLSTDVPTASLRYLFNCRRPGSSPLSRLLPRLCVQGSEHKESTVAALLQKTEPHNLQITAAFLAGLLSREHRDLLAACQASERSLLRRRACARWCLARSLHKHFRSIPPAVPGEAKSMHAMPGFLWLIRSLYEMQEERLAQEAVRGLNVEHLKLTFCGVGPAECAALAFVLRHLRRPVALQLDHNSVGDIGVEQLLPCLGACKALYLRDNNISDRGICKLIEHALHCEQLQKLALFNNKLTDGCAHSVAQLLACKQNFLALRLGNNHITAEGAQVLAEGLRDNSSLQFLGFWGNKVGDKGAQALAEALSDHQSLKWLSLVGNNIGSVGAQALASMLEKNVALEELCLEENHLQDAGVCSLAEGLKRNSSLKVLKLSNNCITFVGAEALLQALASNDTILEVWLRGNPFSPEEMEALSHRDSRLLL
OcNOD2ΔCARD^SER (OcNOD2ΔCARD with surface entropy reduction mutations) (G1T469, form named): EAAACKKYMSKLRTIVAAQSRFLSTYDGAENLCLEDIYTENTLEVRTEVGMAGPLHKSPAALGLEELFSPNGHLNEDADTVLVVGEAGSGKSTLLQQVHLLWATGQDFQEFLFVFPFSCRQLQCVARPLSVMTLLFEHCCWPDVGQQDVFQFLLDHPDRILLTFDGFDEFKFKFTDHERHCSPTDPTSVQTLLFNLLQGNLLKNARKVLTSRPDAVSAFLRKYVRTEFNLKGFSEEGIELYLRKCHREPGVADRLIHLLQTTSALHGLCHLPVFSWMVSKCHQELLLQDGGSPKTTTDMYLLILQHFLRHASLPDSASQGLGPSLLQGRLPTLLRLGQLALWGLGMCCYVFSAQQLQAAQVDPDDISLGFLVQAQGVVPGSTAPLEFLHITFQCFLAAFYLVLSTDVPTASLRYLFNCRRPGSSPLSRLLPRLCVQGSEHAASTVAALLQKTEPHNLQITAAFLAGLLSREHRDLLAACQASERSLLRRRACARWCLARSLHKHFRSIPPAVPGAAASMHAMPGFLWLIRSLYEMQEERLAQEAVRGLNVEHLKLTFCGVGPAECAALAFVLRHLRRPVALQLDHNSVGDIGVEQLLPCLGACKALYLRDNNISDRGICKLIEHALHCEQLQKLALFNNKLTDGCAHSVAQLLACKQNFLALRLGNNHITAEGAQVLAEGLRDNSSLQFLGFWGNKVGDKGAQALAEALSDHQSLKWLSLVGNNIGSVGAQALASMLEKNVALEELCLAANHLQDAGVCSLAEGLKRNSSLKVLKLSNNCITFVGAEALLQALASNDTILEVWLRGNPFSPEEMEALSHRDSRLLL
OcNOD2ΔCARDΔloop (OcNOD2ΔCARD with residues 245-251 and 626-635 deleted) (G1T469, form named): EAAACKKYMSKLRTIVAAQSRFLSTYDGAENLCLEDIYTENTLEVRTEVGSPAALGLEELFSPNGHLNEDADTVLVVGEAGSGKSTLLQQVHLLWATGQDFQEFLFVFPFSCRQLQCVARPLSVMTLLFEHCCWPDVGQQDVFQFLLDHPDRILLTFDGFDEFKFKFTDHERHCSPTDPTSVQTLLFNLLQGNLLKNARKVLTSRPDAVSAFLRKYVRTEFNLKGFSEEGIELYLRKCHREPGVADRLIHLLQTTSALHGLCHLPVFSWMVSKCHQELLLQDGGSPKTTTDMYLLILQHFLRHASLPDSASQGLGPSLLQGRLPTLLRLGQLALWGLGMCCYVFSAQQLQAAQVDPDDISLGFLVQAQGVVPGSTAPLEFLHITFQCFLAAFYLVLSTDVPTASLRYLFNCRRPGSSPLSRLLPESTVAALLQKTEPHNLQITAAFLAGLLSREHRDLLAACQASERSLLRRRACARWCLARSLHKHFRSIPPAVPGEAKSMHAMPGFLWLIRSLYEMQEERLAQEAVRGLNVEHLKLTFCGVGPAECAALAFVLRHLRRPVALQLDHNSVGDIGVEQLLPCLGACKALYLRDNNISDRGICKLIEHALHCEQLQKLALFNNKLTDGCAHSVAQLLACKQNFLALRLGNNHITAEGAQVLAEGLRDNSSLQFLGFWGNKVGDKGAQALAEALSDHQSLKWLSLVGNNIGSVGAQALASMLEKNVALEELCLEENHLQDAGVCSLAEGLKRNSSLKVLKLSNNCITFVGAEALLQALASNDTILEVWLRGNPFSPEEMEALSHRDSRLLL

Key:
Test in all cases: SEC; gel filtration chromatography of each purified NOD2 protein alone, in solution; both purified
[1] = target: OcNOD2ΔCARD (OcNOD2 residues 195-1,020) (rabbit (Oryctolagus cuniculus)) (UniProt G1T469)
[2] = target: OcNOD2ΔCARD^SER (OcNOD2ΔCARD with surface entropy reduction mutations) (rabbit (Oryctolagus cuniculus)) (UniProt G1T469)
[3] = target: OcNOD2ΔCARDΔloop (OcNOD2ΔCARD with residues 245-251 and 626-635 deleted) (rabbit (Oryctolagus cuniculus)) (UniProt G1T469)
[4] = target: full-length rabbit NOD2 (OcNOD2; residues 1-1,020) (rabbit (Oryctolagus cuniculus)) (UniProt G1T469)

Substance: OcNOD2ΔCARD (OcNOD2 residues 195-1,020) (from UniProt G1T469 188-1013) (domain or fragment)
- binding [1]: no binding

Substance: OcNOD2ΔCARD^SER (OcNOD2ΔCARD with surface entropy reduction mutations) (from UniProt G1T469 188-1013) (domain or fragment)
- binding [2]: no binding

Substance: OcNOD2ΔCARDΔloop (OcNOD2ΔCARD with residues 245-251 and 626-635 deleted) (from UniProt G1T469 188-1013) (domain or fragment)
- binding [3]: no binding

Substance: full-length rabbit NOD2 (OcNOD2; residues 1-1,020) (from UniProt G1T469 1-1013)
- binding [4]: no binding
